Experimental data published in patent publication US8741951B2, “Non-steroidal compounds for androgen receptor modulation” (CNR—Consiglio Nazionale delle Ricerche, priority 2009, dated 2014).
At least one read-out could not be matched to a standard name with certainty.

How the values were obtained:
LNCaP cells = assay: TUNEL assay (flow cytometry), LNCaP; format: cell-based, human; conditions: 144 hours at 20.0 μM
LNCaP-AR cells = assay: TUNEL assay (flow cytometry), LNCaP-AR; format: cell-based, human; conditions: 144 hours at 20.0 μM

Compound: N#Cc1ccc(NC(=O)[C@](O)(Cc2cccs2)CS(=O)(=O)c2ccc(F)cc2)cc1C(F)(F)F [(R)-XXIII-6]
- Apoptotic cells (%) (LNCaP cells): 8.4%
- Apoptotic cells (%) (LNCaP-AR cells): 9.9%

Compound: N#Cc1ccc(C[C@](O)(CS(=O)(=O)c2ccc(F)cc2)C(=O)Nc2ccc(C#N)c(C(F)(F)F)c2)cc1 [(R)-XXIII-7]
- Apoptotic cells (%) (LNCaP cells): 19.8%
- Apoptotic cells (%) (LNCaP-AR cells): 16.4%

Compound: N#Cc1ccc(NC(=O)[C@@](O)(CS(=O)(=O)c2ccc(F)cc2)c2ccccc2)cc1C(F)(F)F [(R)-XXIII-8]
- Apoptotic cells (%) (LNCaP cells): 10.8%
- Apoptotic cells (%) (LNCaP-AR cells): 8.1%

Compound: N#Cc1ccc(NC(=O)[C@](O)(Cc2ccccc2)CS(=O)(=O)c2ccc(F)cc2)cc1C(F)(F)F [(R)-XXIII-3]
- Apoptotic cells (%) (LNCaP cells): 9.0%
- Apoptotic cells (%) (LNCaP-AR cells): 6.5%

Compound: N#Cc1ccc(NC(=O)[C@](O)(Cc2ccc(F)cc2)CS(=O)(=O)c2ccc(F)cc2)cc1C(F)(F)F [(R)-XXIII-4]
- Apoptotic cells (%) (LNCaP cells): 8.5%
- Apoptotic cells (%) (LNCaP-AR cells): 9.7%

Compound: CC[C@](O)(CS(=O)(=O)c1ccc(F)cc1)C(=O)Nc1ccc(C#N)c(C(F)(F)F)c1 [(R)-XXIII-2]
- Apoptotic cells (%) (LNCaP cells): 10.8%
- Apoptotic cells (%) (LNCaP-AR cells): 7.9%
